Reference: PMC7515705
These are yes or no findings as the source states them, for the method shown. In cells and extracts the contact can be indirect. Some results given as binding are weak or reduced against the parent protein; the word gives no strength. For some of these results: Tags and fused reporters may be left off the sequences shown. Each block holds one binder with its values, some of them ahead of it.

How the values were obtained:
[1] = target: T1, YBEY-3 × FLAG (human), P58557; experiment: FRET or BRET; indirect FLIM-FRET in fixed, immunolabelled SAL001 cells; donor Alexa Fluor 488, acceptor Alexa Fluor 555 on secondary antibodies; donor lifetime in the frequency domain; details: remark: other sources report otherwise
T1 chain: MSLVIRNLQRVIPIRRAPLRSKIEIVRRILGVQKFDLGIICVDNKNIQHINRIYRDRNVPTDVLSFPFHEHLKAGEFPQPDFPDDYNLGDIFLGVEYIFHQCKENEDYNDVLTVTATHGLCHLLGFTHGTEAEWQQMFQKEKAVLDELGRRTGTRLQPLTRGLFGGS

[2] = target: T1, YBEY-3 × FLAG (human), P58557; experiment: co-IP; α-FLAG antibody and protein A-sepharose on mitochondrial lysates of SAL001 cells expressing YBEY-3 × FLAG; parental cells as control; western blotting of lysate, flow-through, wash and IP fractions; details: remark: other sources report otherwise
[3] = target: T2, YBEY-His6 (human), P58557; experiment: pull-down; YBEY-His6 and tagless p32 co-expressed in E. coli; cleared lysate on Ni-NTA agarose, native conditions (20 mM Tris-HCl pH 7.5, 150 mM KCl, 1 mM MgCl2), step elution with imidazole, 4°C; details: remark: other sources report otherwise
T2 chain: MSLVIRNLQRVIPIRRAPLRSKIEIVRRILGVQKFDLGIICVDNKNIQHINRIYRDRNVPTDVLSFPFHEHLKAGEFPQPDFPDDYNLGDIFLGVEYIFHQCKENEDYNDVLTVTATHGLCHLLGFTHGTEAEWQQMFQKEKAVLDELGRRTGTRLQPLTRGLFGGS

[4] = target: T2, YBEY-His6 (human), P58557; experiment: pull-down; cleared lysates of E. coli co-expressing YBEY-His6 and p32 and of E. coli expressing uS11m mixed 1:1, 30 min at 4°C, then Ni-NTA agarose, native conditions, step elution with imidazole; details: remark: other sources report otherwise
[5] = target: T1, YBEY-3 × FLAG (human), P58557; experiment: co-IP; cross-pulldown from total lysates of cells overexpressing YBEY-3 × FLAG and/or p32-HA; α-FLAG or α-HA antibody, protein A-sepharose; western blotting; details: remark: other sources report otherwise
[6] = target: T3, p32-HA (human), Q07021; experiment: as above; details: remark: other sources report otherwise
T3 chain: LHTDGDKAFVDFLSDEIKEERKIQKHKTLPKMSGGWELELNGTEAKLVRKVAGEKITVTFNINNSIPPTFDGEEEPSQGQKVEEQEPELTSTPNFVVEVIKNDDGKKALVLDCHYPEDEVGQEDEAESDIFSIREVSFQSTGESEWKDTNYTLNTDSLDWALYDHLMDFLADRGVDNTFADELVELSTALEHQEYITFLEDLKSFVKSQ

[7] = target: p32/C1QBP, endogenous (human (endogenous in Flp-In T-REx 293)) (UniProt Q07021); experiment: co-IP; α-p32 antibody (α-FLAG as negative control) and protein A-sepharose on mitochondrial lysate of Flp-In T-REx 293 cells; endogenous proteins; western blotting

- binding [1]: binds
- binding [2]: binds
B1: p32/C1QBP, endogenous, Q07021 74-282 (natural protein)
chain: LHTDGDKAFVDFLSDEIKEERKIQKHKTLPKMSGGWELELNGTEAKLVRKVAGEKITVTFNINNSIPPTFDGEEEPSQGQKVEEQEPELTSTPNFVVEVIKNDDGKKALVLDCHYPEDEVGQEDEAESDIFSIREVSFQSTGESEWKDTNYTLNTDSLDWALYDHLMDFLADRGVDNTFADELVELSTALEHQEYITFLEDLKSFVKSQ

- binding [3]: binds
- binding [4]: binds
B2: p32 (mature form, tagless), Q07021 74-282 (protein)
chain: LHTDGDKAFVDFLSDEIKEERKIQKHKTLPKMSGGWELELNGTEAKLVRKVAGEKITVTFNINNSIPPTFDGEEEPSQGQKVEEQEPELTSTPNFVVEVIKNDDGKKALVLDCHYPEDEVGQEDEAESDIFSIREVSFQSTGESEWKDTNYTLNTDSLDWALYDHLMDFLADRGVDNTFADELVELSTALEHQEYITFLEDLKSFVKSQ

- binding [5]: binds
B3: p32-HA, Q07021 74-282 (protein)
chain: LHTDGDKAFVDFLSDEIKEERKIQKHKTLPKMSGGWELELNGTEAKLVRKVAGEKITVTFNINNSIPPTFDGEEEPSQGQKVEEQEPELTSTPNFVVEVIKNDDGKKALVLDCHYPEDEVGQEDEAESDIFSIREVSFQSTGESEWKDTNYTLNTDSLDWALYDHLMDFLADRGVDNTFADELVELSTALEHQEYITFLEDLKSFVKSQ

- binding [6]: binds
B4: YBEY-3 × FLAG, P58557-1 1-167 (protein)
chain: MSLVIRNLQRVIPIRRAPLRSKIEIVRRILGVQKFDLGIICVDNKNIQHINRIYRDRNVPTDVLSFPFHEHLKAGEFPQPDFPDDYNLGDIFLGVEYIFHQCKENEDYNDVLTVTATHGLCHLLGFTHGTEAEWQQMFQKEKAVLDELGRRTGTRLQPLTRGLFGGS

- binding [7]: binds
B5: endogenous YBEY (protein, UniProt P58557-1 1-167)
chain: MSLVIRNLQRVIPIRRAPLRSKIEIVRRILGVQKFDLGIICVDNKNIQHINRIYRDRNVPTDVLSFPFHEHLKAGEFPQPDFPDDYNLGDIFLGVEYIFHQCKENEDYNDVLTVTATHGLCHLLGFTHGTEAEWQQMFQKEKAVLDELGRRTGTRLQPLTRGLFGGS
